Entries after “also recorded” stand apart in the source; their conditions may differ. For some of these results: Strings that start with PEPTIDE1 are HELM notation: dots part the residues, brackets hold end groups and non-standard residues. Starred links: 1 amine or outer side, 2 acyl side, 3 side chain; linkers in the order of their positions; H or OH if unused. Non-standard residues stand in square brackets, D forms with d. AMPB = O=C(c1ccc(N=Nc2ccc(CN[*:1])cc2)cc1)[*:2]; Ahx = NCCCCCC(=O)O; βAla = NCCC(=O)O
Key:
[1] = Control for quenching artefacts in the FP assay; settings: increasing AMPB concentrations; 20 nM tracer, 72 nM WDR5, 0.5 µM peptide 3 or 20 nM fluorescein
[2] = general procedure: Fmoc solid-phase peptide synthesis; TentaGel S RAM (0.25 mmol/g); rink amide MBHA; DIC/OxymaPure; settings: whole synthesis; for final HPLC purity: 220 nm
[3] = general procedure: Fmoc solid-phase peptide synthesis; rink amide; DIC/OxymaPure; settings: whole synthesis; for final HPLC purity: analytical HPLC, integrated peak areas, 220 nm
[4] = analytical HPLC, integrated peak areas, scale of the general procedure 20-40 umol
[5] = scale of the general procedure 20-40 umol
[6] = analytical HPLC, integrated peak areas, scale 20 µmol

Compound: NCc1ccc(N=Nc2ccc(C(=O)O)cc2)cc1 [AMPB, 4-[(4′-aminomethyl)phenylazo]benzoic acid]
- effect on FP signal (quenching control) [1]: not affect the milli Polarization values; also recorded: absence of quenching artefacts

Compound: Ac-ARA[AMPB]VHLRKS-NH2 (SMILES CC(=O)N[C@@H](C)C(=O)N[C@@H](CCCNC(=N)N)C(=O)N[C@@H](C)C(=O)NCc1ccc(N=Nc2ccc(C(=O)N[C@H](C(=O)N[C@@H](Cc3c[nH]cn3)C(=O)N[C@@H](CC(C)C)C(=O)N[C@@H](CCCNC(=N)N)C(=O)N[C@@H](CCCCN)C(=O)N[C@@H](CO)C(N)=O)C(C)C)cc2)cc1)
- isolated mass [2]: 2.70 mg
- final HPLC purity [2, 4]: ≥ 99%
- isolated yield [2, 5]: 13%

Compound: Ac-ART[AMPB]VY-NH2 (SMILES CC(=O)N[C@@H](C)C(=O)N[C@@H](CCCNC(=N)N)C(=O)N[C@H](C(=O)NCc1ccc(N=Nc2ccc(C(=O)N[C@H](C(=O)N[C@@H](Cc3ccc(O)cc3)C(N)=O)C(C)C)cc2)cc1)[C@@H](C)O)
- final HPLC purity [2, 6]: Purity = 99%
- isolated mass ([2]; scale 20 µmol): 11.0 mg
- isolated yield ([2]; scale 20 µmol): 55%

Compound: H2N-(Arg-Ahx-Arg)4-Ahx-βA a-CONH2
- isolated mass [2]: 18.4 mg
- final HPLC purity [2, 4]: ≥ 99%
- isolated yield [2, 5]: 45%

Compound: H2N-Ser-AMPB-Ala-Arg-Ala-Glu-Val-His-Leu-Arg-Lys-Ser-CONH2
- isolated mass [2]: 14.8 mg
- final HPLC purity [2, 4]: ≥ 99%
- isolated yield [2, 5]: 19%

Compound: H2N-Ser-Ala-Arg-AMPB-Glu-Val-His-Leu-Arg-Lys-Ser-CONH2
- isolated mass [2]: 14.4 mg
- final HPLC purity [2, 4]: ≥ 99%
- isolated yield [2, 5]: 21%

Compound: H2N-Ser-Ala-Arg-Ala-Glu-Val-His-Leu-Arg-Lys-Ser-R8-CONH2
- isolated mass [2]: 42.7 mg
- final HPLC purity [2, 4]: ≥ 99%
- isolated yield [2, 5]: 13%

Compound: H-SARAEVHLRKS-NH2
- isolated mass [2]: 62.7 mg
- final HPLC purity [2, 5]: ≥ 99%
- isolated yield ([2]; on resin-bound peptide taken for cleavage, scale of the general procedure 20-40 umol): 33%

Compound: H-SARAEVHLRKSR[Ahx]RR[Ahx]RR[Ahx]RR[Ahx]R[Ahx][βAla]-NH2 (SMILES CC(C)C[C@H](NC(=O)[C@H](Cc1c[nH]cn1)NC(=O)[C@@H](NC(=O)[C@H](CCC(=O)O)NC(=O)[C@H](C)NC(=O)[C@H](CCCNC(=N)N)NC(=O)[C@H](C)NC(=O)[C@@H](N)CO)C(C)C)C(=O)N[C@@H](CCCNC(=N)N)C(=O)N[C@@H](CCCCN)C(=O)N[C@@H](CO)C(=O)N[C@@H](CCCNC(=N)N)C(=O)NCCCCCC(=O)N[C@@H](CCCNC(=N)N)C(=O)N[C@@H](CCCNC(=N)N)C(=O)NCCCCCC(=O)N[C@@H](CCCNC(=N)N)C(=O)N[C@@H](CCCNC(=N)N)C(=O)NCCCCCC(=O)N[C@@H](CCCNC(=N)N)C(=O)N[C@@H](CCCNC(=N)N)C(=O)NCCCCCC(=O)N[C@@H](CCCNC(=N)N)C(=O)NCCCCCC(=O)NCCC(N)=O)
- isolated mass [2]: 6 mg
- final HPLC purity [2, 4]: ≥ 99%
- isolated yield [2, 5]: 2%

Compound: H-SARAEVHLR[AMPB]S-NH2 (SMILES CC(C)C[C@H](NC(=O)[C@H](Cc1c[nH]cn1)NC(=O)[C@@H](NC(=O)[C@H](CCC(=O)O)NC(=O)[C@H](C)NC(=O)[C@H](CCCNC(=N)N)NC(=O)[C@H](C)NC(=O)[C@@H](N)CO)C(C)C)C(=O)N[C@@H](CCCNC(=N)N)C(=O)NCc1ccc(N=Nc2ccc(C(=O)N[C@@H](CO)C(N)=O)cc2)cc1)
- isolated mass [3]: 7.7 mg
- final HPLC purity [3, 5]: ≥ 99%
- isolated yield [3, 5]: 65%

Compound: H-SARAEVHL[AMPB]KS-NH2 (SMILES CC(C)C[C@H](NC(=O)[C@H](Cc1c[nH]cn1)NC(=O)[C@@H](NC(=O)[C@H](CCC(=O)O)NC(=O)[C@H](C)NC(=O)[C@H](CCCNC(=N)N)NC(=O)[C@H](C)NC(=O)[C@@H](N)CO)C(C)C)C(=O)NCc1ccc(N=Nc2ccc(C(=O)N[C@@H](CCCCN)C(=O)N[C@@H](CO)C(N)=O)cc2)cc1)
- isolated mass [3]: 9.4 mg
- final HPLC purity [3, 5]: Purity = 99%
- isolated yield [3, 5]: 29%

Compound: H-SARAEVH[AMPB]RKS-NH2 (SMILES CC(C)[C@H](NC(=O)[C@H](CCC(=O)O)NC(=O)[C@H](C)NC(=O)[C@H](CCCNC(=N)N)NC(=O)[C@H](C)NC(=O)[C@@H](N)CO)C(=O)N[C@@H](Cc1c[nH]cn1)C(=O)NCc1ccc(N=Nc2ccc(C(=O)N[C@@H](CCCNC(=N)N)C(=O)N[C@@H](CCCCN)C(=O)N[C@@H](CO)C(N)=O)cc2)cc1)
- isolated mass [2]: 1.8 mg
- final HPLC purity [2, 4]: Purity = 98%
- isolated yield [2, 5]: 22%

Compound: H-SARAEV[AMPB]LRKS-NH2 (SMILES CC(C)C[C@H](NC(=O)c1ccc(N=Nc2ccc(CNC(=O)[C@@H](NC(=O)[C@H](CCC(=O)O)NC(=O)[C@H](C)NC(=O)[C@H](CCCNC(=N)N)NC(=O)[C@H](C)NC(=O)[C@@H](N)CO)C(C)C)cc2)cc1)C(=O)N[C@@H](CCCNC(=N)N)C(=O)N[C@@H](CCCCN)C(=O)N[C@@H](CO)C(N)=O)
- isolated mass [2]: 7.0 mg
- final HPLC purity [2, 4]: ≥ 99%
- isolated yield [2, 5]: 25%

Compound: H-SARAE[AMPB]HLRKS-NH2 (SMILES CC(C)C[C@H](NC(=O)[C@H](Cc1c[nH]cn1)NC(=O)c1ccc(N=Nc2ccc(CNC(=O)[C@H](CCC(=O)O)NC(=O)[C@H](C)NC(=O)[C@H](CCCNC(=N)N)NC(=O)[C@H](C)NC(=O)[C@@H](N)CO)cc2)cc1)C(=O)N[C@@H](CCCNC(=N)N)C(=O)N[C@@H](CCCCN)C(=O)N[C@@H](CO)C(N)=O)
- isolated mass [2]: 1.4 mg
- final HPLC purity [2, 4]: Purity ≥ 99%
- isolated yield [2, 5]: 9%

Compound: H-SARA[AMPB]HLRKS-NH2 (SMILES CC(C)C[C@H](NC(=O)[C@H](Cc1c[nH]cn1)NC(=O)c1ccc(N=Nc2ccc(CNC(=O)[C@H](C)NC(=O)[C@H](CCCNC(=N)N)NC(=O)[C@H](C)NC(=O)[C@@H](N)CO)cc2)cc1)C(=O)N[C@@H](CCCNC(=N)N)C(=O)N[C@@H](CCCCN)C(=O)N[C@@H](CO)C(N)=O)
- final HPLC purity [2, 6]: Purity = 98%
- isolated mass ([2]; scale 20 µmol): 15.7 mg
- isolated yield ([2]; scale 20 µmol): 43%

Compound: H-SARA[AMPB]VHLRKSRRRRRRRR-NH2
- final HPLC purity ([2]; analytical HPLC, integrated peak areas, scale 0.1 mmol): ≥ 99%
- isolated mass ([2]; scale 0.1 mmol): 86.5 mg
- isolated yield ([2]; scale 0.1 mmol): 21%

Compound: H-S[AMPB]RAEVHLRKS-NH2
- isolated mass [2]: 14.1 mg
- final HPLC purity [2, 4]: ≥ 99%
- isolated yield [2, 5]: 20%

Compound: PEPTIDE1{R.R.R.R.R.R.R.R.[am]}$$$$V2.0
- isolated mass [2]: 24.2 mg
- final HPLC purity [2, 4]: ≥ 99%
- isolated yield [2, 5]: 27%

Compound: PEPTIDE1{[ac].A.R.T.E.V.H.L.R.K.S.[Ahx].[Ahx].K.[am]}|CHEM1{[5FAM]}$PEPTIDE1,CHEM1,14:R3-1:R2$$$V2.0
- final HPLC purity ([3]; scale 60 µmol): Purity = 99%
- isolated mass ([3]; scale 60 µmol): 19.1 mg
- isolated yield ([3]; scale 60 µmol): 56%

Reference: paper PMC5618341 (Chemical Science, 2017)
